From PMC10870071
Results are given in words; binding and its absence hold for the method and conditions named. In cells and extracts the contact can be indirect. Some results given as binding are weak or reduced against the parent protein; the word gives no strength. For some assays here: Sequences can lack the tags named with a protein.

Amino acid sequences for entries named in this document (tags omitted).
UniProt Q13283: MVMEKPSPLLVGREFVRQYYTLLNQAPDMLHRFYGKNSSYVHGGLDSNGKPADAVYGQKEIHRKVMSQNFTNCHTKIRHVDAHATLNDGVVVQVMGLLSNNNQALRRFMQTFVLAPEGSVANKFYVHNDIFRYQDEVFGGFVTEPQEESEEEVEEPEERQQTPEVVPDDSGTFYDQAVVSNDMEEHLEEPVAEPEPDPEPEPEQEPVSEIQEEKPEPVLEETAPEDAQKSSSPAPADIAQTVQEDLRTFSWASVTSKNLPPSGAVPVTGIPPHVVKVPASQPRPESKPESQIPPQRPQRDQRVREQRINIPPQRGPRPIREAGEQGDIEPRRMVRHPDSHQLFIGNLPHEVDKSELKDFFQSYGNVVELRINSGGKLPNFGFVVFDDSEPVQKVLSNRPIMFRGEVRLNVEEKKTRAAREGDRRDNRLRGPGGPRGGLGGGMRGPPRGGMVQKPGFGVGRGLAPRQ
UniProt Q04637: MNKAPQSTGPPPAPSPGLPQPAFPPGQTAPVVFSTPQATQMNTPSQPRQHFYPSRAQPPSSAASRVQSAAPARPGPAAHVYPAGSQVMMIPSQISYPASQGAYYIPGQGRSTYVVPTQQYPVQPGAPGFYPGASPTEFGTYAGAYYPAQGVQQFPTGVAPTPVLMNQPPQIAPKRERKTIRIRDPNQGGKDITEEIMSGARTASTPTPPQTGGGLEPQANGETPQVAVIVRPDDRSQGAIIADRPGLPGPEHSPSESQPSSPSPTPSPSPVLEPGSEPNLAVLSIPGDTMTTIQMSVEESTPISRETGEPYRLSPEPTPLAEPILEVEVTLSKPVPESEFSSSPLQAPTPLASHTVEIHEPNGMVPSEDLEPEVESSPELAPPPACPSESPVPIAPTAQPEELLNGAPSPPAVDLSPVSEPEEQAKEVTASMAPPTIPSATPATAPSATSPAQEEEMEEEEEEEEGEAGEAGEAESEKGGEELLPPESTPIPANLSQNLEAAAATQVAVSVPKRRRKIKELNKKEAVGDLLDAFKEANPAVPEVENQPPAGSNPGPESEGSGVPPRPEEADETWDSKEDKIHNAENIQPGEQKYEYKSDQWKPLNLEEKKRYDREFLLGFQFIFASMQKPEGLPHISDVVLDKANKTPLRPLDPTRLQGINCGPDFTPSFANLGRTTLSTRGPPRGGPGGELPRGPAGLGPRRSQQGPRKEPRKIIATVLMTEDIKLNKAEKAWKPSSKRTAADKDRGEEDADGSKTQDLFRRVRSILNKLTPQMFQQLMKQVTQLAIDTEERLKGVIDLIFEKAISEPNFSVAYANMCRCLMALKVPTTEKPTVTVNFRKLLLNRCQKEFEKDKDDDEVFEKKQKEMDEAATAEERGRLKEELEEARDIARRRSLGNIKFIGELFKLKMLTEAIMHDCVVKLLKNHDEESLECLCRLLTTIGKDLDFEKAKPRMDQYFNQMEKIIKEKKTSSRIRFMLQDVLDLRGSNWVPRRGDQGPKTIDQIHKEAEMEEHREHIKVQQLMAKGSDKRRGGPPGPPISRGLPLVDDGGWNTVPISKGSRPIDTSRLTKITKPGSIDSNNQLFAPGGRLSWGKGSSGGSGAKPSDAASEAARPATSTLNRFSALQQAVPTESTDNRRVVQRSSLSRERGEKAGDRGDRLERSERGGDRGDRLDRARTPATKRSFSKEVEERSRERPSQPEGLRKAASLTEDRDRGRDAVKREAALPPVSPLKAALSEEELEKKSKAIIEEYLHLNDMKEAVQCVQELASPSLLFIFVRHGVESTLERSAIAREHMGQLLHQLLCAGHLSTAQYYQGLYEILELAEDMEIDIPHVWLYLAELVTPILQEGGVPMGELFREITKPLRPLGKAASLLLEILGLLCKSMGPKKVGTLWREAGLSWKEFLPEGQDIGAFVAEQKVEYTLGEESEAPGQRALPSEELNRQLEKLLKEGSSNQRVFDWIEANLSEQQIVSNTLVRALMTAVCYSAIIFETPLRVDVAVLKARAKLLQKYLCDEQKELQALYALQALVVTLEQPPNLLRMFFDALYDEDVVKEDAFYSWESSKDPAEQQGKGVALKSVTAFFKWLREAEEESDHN
UniProt P11940: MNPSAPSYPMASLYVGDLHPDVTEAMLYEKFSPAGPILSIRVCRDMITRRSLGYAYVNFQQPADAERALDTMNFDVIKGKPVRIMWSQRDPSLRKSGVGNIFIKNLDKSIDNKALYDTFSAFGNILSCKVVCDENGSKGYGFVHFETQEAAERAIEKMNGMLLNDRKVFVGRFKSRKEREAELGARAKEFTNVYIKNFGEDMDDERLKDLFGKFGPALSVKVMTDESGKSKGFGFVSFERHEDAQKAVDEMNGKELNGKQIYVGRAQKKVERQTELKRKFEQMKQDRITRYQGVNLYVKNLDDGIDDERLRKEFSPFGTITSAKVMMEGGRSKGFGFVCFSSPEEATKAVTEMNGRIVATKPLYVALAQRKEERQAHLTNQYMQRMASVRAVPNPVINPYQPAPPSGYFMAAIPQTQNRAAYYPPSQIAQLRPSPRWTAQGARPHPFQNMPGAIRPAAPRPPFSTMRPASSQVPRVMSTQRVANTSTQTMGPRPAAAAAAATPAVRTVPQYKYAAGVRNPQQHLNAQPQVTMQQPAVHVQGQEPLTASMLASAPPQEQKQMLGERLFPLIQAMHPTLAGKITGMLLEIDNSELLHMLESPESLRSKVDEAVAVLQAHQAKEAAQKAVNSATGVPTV

T1: SLU7-Flag (Flag-tagged human splicing factor synergistic lethal with U5 snRNA 7) (human) (UniProt O95391)
T1 sequence: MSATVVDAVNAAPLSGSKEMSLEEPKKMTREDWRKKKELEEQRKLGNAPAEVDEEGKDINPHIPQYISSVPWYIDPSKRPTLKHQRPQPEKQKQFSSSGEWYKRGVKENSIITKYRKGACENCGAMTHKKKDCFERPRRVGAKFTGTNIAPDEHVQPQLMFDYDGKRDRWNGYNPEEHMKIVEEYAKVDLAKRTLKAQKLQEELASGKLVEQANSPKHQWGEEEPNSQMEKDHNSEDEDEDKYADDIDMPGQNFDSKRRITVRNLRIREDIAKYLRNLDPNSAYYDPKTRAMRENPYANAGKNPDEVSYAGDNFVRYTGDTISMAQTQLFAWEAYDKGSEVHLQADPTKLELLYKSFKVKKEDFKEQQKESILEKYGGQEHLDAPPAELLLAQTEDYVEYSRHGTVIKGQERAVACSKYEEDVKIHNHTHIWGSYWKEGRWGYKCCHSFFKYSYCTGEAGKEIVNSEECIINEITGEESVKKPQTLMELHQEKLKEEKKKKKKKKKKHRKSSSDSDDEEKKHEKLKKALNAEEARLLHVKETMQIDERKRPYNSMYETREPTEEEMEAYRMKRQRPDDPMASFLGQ

B1: endogenous SLU7 (protein, UniProt O95391 1-586)
chain: T1 sequence

Experiments:
[1] = target: T1, SLU7-Flag (Flag-tagged human splicing factor synergistic lethal with U5 snRNA 7) (human); assay: co-IP; re-IP: lysates of UMUC3 cells stably expressing both SLU7-Flag and HA-G3BP1; first IP with anti-Flag antibody, 15 µg/mL Flag peptide for 2 h at 4 °C, then re-IP with anti-HA antibody; western blot
[2] = target: T1, SLU7-Flag (Flag-tagged human splicing factor synergistic lethal with U5 snRNA 7) (human); assay: co-IP; lysates (RIPA buffer) of cells stably expressing SLU7-Flag or HA-G3BP1; anti-Flag or anti-HA antibody overnight at 4 °C, protein A/G magnetic beads 2 h at 4 °C, eight washes with RIPA buffer; western blot
[3] = target: HA-G3BP1 (HA-tagged human Ras GTPase-activating protein-binding protein 1) (human) (UniProt Q13283); assay: as above
[4] = target: HA-G3BP1 (HA-tagged human Ras GTPase-activating protein-binding protein 1) (human) (UniProt Q13283); assay: co-IP; re-IP: lysates of UMUC3 cells stably expressing both SLU7-Flag and HA-G3BP1; first IP with anti-Flag antibody, 15 µg/mL Flag peptide for 2 h at 4 °C, then re-IP with anti-HA antibody; western blot
[5] = target: endogenous G3BP1 (human (endogenous in UMUC3 and T24)) (UniProt Q13283); assay: proximity ligation; Duolink in situ PLA on fixed, permeabilised UMUC3 and T24 cells with antibodies against SLU7 and G3BP1 (endogenous proteins)

Row | Molecule | binding [3] | binding [4] | further results
1 | HA-G3BP1 (HA-tagged human Ras GTPase-activating protein-binding protein 1) (from UniProt Q13283 1-466) |  |  | binding [1]: binds
2 | endogenous G3BP1 (from UniProt Q13283 1-466) |  |  | binding [2]: binds
3 | eukaryotic translation initiation factor 4 gamma 1 (eIF4G1), endogenous (from UniProt Q04637 1-1599) | binds | binds | 
4 | poly(A)-binding protein cytoplasmic 1 (PABPC1), endogenous (from UniProt P11940 1-636) | binds | binds | 
5 | B1 | binds |  | binding [5]: binds
